Data: publication PMC8448752
Results are given in words; binding and its absence hold for the method and conditions named. Some entries that bind do so weakly or less than the wild type.

Amino acid sequences for entries named in this document (tags omitted).
UniProt P08318: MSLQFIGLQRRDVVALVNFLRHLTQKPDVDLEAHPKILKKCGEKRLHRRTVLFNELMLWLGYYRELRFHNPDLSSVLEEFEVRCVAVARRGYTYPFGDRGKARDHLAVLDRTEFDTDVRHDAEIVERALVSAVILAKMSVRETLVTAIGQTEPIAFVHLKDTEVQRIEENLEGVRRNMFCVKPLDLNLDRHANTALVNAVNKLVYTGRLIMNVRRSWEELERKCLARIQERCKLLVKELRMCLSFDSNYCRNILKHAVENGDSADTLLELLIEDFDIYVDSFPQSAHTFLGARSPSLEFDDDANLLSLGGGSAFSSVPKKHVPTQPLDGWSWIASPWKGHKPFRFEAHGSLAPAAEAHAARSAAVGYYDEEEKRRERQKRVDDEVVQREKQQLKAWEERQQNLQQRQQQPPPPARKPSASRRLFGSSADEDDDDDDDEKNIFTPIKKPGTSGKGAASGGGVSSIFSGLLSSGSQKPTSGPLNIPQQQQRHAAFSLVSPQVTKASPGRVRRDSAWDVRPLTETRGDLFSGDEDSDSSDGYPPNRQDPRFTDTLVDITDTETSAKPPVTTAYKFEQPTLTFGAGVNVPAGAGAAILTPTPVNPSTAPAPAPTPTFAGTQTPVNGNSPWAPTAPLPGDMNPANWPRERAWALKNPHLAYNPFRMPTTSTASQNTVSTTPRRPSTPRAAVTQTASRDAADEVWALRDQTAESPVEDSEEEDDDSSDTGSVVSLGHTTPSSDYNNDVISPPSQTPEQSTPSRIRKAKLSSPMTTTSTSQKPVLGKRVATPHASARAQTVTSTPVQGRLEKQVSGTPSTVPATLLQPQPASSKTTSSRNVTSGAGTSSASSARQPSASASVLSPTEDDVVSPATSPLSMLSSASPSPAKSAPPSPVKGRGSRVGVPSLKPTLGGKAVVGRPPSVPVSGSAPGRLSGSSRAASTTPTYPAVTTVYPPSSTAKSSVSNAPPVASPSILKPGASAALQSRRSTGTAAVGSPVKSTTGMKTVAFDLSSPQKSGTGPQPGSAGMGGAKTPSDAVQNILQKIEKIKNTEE

Target: capsid-associated tegument protein pp150 (human cytomegalovirus (AD169 strain)) (UniProt P08318)
Experiment: cryo-EM structure

“capsid-associated tegument protein pp150 (from UniProt P08318 1-1048)” was tested, and the binding was “binds”.
